According to patent US20060052582A1, “Identification of inhibitors of mitosis” (priority 2002, published 2006):
These are yes or no findings as the source states them, for the method shown. In cells and extracts the contact can be indirect. Some entries that bind do so weakly or less than the wild type. Tags and fused reporters may be left off the sequences shown.

Key:
GST Nek6 (human) [1] = assay: GSH-agarose pull-down from co-transfected 293 cells, anti-FLAG blot
GST Nek6 (human) [2] = assay: GSH-agarose pull-down from co-transfected HEK293 cells (figure legend)
[3] = molecular target: GST Nercc (891-940) (human); assay: GST-agarose pull-down from co-transfected HEK293 cells, anti-FLAG blot

Measured: binding

B1: FLAG Nercc (full-length wild type Nercc1 kinase with FLAG epitope tag) (enzyme)
chain: MDYKDDDDKMSVLGEYERHCDSINSDFGSESGGCGDSSPGPSASQGPRAGGGAAEQEELHYIPIRVLGRGAFGEATLYRRTEDDSLVVWKEVDLTRLSEKERRDALNEIVILALLQHDNIIAYYNHFMDNTTLLIELEYCNGGNLYDKILRQKDKLFEEEMVVWYLFQIVSAVSCIHKAGILHRDIKTLNIFLTKANLIKLGDYGLAKKLNSEYSMAETLVGTPYYMSPELCQGVKYNFKSDIWAVGCVIFELLTLKRTFDATNPLNLCVKIVQGIRAMEVDSSQYSLELIQMVHSCLDQDPEQRPTADELLDRPLLRKRRREMEEKVTLLNAPTKRPRSSTVTEAPIAVVTSRTSEVYIWGGGKSTPQKLDVIKSGCSARQVCAGNTHFAVVTVEKELYTWVNMQGGTKLHGQLGHGDKASYRQPKHVEKLQGKAIHQVSCGDDFTVCVTDEGQLYAFGSDYYGCMGVDKVAGPEVLEPMQLNFFLSNPVEQVSCGDNHVVVLTRNKEVYSWGCGEYGRLGLDSEEDYYTPQKVDVPKALIIVAVQCGCDGTFLLTQSGKVLACGLNEFNKLGLNQCMSGIINHEAYHEVPYTTSFTLAKQLSFYKIRTIAPGKTHTAAIDERGRLLTFGCNKCGQLGVGNYKKRLGINLLGGPLGGKQVIRVSCGDEFTIAATDDNHIFAWGNGGNGRLAMTPTERPHGSDICTSWPRPIFGSLHHVPDLSCRGWHTILIVEKVLNSKTIRSNSSGLSIGTVFQSSSPGGGGGGGGGEEEDSQQESETPDPSGGFRGTMEADRGMEGLISPTEAMGNSNGASSSCPGWLRKELENAEFIPMPDSPSPLSAAFSESEKDTLPYEELQGLKVASEAPLEHKPQVEASSPRLNPAVTCAGKGTPLTPPACACSSLQVEVERLQGLVLKCLAEQQKLQQENLQIFTQLQKLNKKLEGGQQVGMHSKGTQTAKEEMEMDPKPDLDSDSGCLLGTDSCRPSL
binds: all assays above
